Measurements: patent US20230173082A1, “ANTIBACTERIAL PRODUCTS” (UNIVERSITY OF LINCOLN, priority 2014, published 2023)
For some assays here: Not every detail of the peptide structures is certain; ends, links or a residue may be inferred. For at least one compound, name, drawing or mass did not settle the structure.

What was measured:
Assay in all cases: MIC testing (MIC/MBC), broth dilution
Type in all cases: cell-based
A. Baumannii 19606 = system: A. Baumannii 19606
Description: (§1) • The bacteria were grown in 5 ml of Mueller Hinton Broth overnight at 37° C. • The inhibitor was tested on its own or in conjunction with a cell penetrating peptide (CPP). • When tested with a CPP they were incubated together at room temperature for 1 hour before use. • Delivery agents (Compound 5, Compound 6, and 7) were used at a 1:2 ratio.

K. Pneumonia 700603 = system: K. Pneumonia 700603
Description: as §1

E. Coli 25922 = settings: delivery agents with Moenomycin A at 1:2 ratio
Description: as §1

P. Aeruginosa 27853 = settings: single value; peptide derivatives alone or with Moenomycin A
Description: as §1

[1] = runs A, B, C, 24 hours at 37° C., delivery agents with Moenomycin A at 1:2 ratio
[2] = runs A, B, C, delivery agents with Moenomycin A at 1:2 ratio
[3] = single value, peptide derivatives alone or with Moenomycin A

CCCCCCCCCCCCCCCCCC(=O)OC(COCC(COC(=O)NCCCN(C)CCCN)OC(=O)NCCCN(C)CCCN)COCC(COC(=O)NCCCN(C)CCCN)OC(=O)NCCCN(C)CCCN (centres unmarked) [Compound 5]
Growth in all wells: MIC (A. Baumannii 19606; [1]) | MBC (A. Baumannii 19606; [2])

CCCCCCCCCCCCCCCCCC(=O)OC(COC(COCC(COC(=O)NCCCN(C)CCCN)OC(=O)NCCCN(C)CCCN)COCC(COC(=O)NCCCN(C)CCCN)OC(=O)NCCCN(C)CCCN)COC(COCC(COC(=O)NCCCN(C)CCCN)OC(=O)NCCCN(C)CCCN)COCC(COC(=O)NCCCN(C)CCCN)OC(=O)NCCCN(C)CCCN (centres unmarked) [Compound 6]
Growth in all wells: MIC (K. Pneumonia 700603; [1]) | MBC (K. Pneumonia 700603; [2]) | MBC (E. Coli 25922)

C#CC(=O)N[C@@H](CCCNC(=N)N)C(=O)N[C@@H](CCCNC(=N)N)C(=O)N[C@@H](CCCNC(=N)N)C(=O)N[C@@H](CCCNC(=N)N)C(=O)N[C@@H](CCCNC(=N)N)C(=O)N[C@@H](CCCNC(=N)N)C(=O)N[C@@H](CCCNC(=N)N)C(=O)N[C@@H](CCCNC(=N)N)C(N)=O [Compound 8]
Growth in all wells: MBC (K. Pneumonia 700603; [3]) | MIC (K. Pneumonia 700603; [3]) | MBC (A. Baumannii 19606; [3]) | MIC (A. Baumannii 19606; [3]) | MBC (P. Aeruginosa 27853) | MIC (P. Aeruginosa 27853)
